Measurements published in article doi:10.1101/2021.07.21.453268 (bioRxiv, 2021).
These are yes or no findings as the source states them, for the method shown. Sequences can lack the tags named with a protein.

Biological target: T1, 3HA-Atg13 (S. cerevisiae, UniProt Q06628 1-738, hyper-phosphorylated (sites not given))
T1 sequence (looked up): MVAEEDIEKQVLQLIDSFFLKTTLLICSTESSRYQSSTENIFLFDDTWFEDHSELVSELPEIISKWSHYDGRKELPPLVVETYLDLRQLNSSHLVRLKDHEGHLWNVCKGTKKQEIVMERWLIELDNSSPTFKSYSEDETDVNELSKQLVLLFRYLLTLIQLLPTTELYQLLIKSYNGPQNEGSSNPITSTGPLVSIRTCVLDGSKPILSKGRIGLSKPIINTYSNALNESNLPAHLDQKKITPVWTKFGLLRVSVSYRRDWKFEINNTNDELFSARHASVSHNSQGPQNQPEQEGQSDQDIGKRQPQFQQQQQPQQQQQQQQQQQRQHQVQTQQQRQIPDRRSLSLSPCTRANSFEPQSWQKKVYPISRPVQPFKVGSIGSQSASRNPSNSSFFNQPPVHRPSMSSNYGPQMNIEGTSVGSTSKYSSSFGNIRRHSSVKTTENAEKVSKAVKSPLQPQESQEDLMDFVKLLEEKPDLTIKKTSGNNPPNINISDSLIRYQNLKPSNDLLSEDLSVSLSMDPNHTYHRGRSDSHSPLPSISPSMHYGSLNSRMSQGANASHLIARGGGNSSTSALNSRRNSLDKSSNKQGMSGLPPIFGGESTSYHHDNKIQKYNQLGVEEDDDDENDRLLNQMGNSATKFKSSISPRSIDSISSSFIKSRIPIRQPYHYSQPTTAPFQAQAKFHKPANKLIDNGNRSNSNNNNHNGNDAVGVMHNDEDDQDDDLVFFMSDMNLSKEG
Assay: pull-down

binding: no binding (tested: 50 ug/ml)
B1: 6His-3FLAG-Cdc14 (enzyme, UniProt Q00684 1-551)
chain: MRRSVYLDNTIEFLRGRVYLGAYDYTPEDTDELVFFTVEDAIFYNSFHLDFGPMNIGHLYRFAVIFHEILNDPENANKAVVFYSSASTRQRANAACMLCCYMILVQAWTPHQVLQPLAQVDPPFMPFRDAGYSNADFEITIQDVVYGVWRAKEKGLIDLHSFNLESYEKYEHVEFGDFNVLTPDFIAFASPQEDHPKGYLATKSSHLNQPFKSVLNFFANNNVQLVVRLNSHLYNKKHFEDIGIQHLDLIFEDGTCPDLSIVKNFVGAAETIIKRGGKIAVHCKAGLGRTGCLIGAHLIYTYGFTANECIGFLRFIRPGMVVGPQQHWLYLHQNDFREWKYTTRISLKPSEAIGGLYPLISLEEYRLQKKKLKDDKRVAQNNIEGELRDLTMTPPSNGHGALSARNSSQPSTANNGSNSFKSSAVPQTSPGQPRKGQNGSNTIEDINNNRNPTSHANRKVVIESNNSDDESMQDTNGTSNHYPKVSRKKNDISSASSSRMEDNEPSATNINNAADDTILRQLLPKNRRVTSGRRTTSAAGGIRKISGSIKK
